In paper doi:10.1101/2021.04.27.441574:
Results are given in words; binding and its absence hold for the method and conditions named. In cells and extracts the contact can be indirect. Some entries that bind do so weakly or less than the wild type. Where a sequence is shown, tags or fusion partners need not be part of it.

Legend:
[1] = biological target: T1, GlpD-HA-His6 (E. coli) (UniProt P13035); assay: co-IP
T1 sequence: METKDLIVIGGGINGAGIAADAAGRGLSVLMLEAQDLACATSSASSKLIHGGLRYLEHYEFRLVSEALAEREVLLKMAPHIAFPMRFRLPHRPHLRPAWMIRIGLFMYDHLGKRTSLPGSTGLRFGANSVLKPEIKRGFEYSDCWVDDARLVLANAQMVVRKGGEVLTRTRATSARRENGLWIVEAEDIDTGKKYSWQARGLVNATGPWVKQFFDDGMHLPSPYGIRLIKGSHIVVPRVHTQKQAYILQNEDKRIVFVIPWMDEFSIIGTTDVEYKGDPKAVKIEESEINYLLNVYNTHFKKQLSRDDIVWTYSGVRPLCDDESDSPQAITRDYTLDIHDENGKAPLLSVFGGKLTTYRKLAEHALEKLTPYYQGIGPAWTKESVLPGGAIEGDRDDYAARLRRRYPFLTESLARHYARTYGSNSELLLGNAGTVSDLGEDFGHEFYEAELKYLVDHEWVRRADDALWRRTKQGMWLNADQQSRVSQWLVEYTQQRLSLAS

[2] = biological target: T2, MgtA-HA (E. coli) (UniProt P0ABB8); assay: co-IP
T2 sequence: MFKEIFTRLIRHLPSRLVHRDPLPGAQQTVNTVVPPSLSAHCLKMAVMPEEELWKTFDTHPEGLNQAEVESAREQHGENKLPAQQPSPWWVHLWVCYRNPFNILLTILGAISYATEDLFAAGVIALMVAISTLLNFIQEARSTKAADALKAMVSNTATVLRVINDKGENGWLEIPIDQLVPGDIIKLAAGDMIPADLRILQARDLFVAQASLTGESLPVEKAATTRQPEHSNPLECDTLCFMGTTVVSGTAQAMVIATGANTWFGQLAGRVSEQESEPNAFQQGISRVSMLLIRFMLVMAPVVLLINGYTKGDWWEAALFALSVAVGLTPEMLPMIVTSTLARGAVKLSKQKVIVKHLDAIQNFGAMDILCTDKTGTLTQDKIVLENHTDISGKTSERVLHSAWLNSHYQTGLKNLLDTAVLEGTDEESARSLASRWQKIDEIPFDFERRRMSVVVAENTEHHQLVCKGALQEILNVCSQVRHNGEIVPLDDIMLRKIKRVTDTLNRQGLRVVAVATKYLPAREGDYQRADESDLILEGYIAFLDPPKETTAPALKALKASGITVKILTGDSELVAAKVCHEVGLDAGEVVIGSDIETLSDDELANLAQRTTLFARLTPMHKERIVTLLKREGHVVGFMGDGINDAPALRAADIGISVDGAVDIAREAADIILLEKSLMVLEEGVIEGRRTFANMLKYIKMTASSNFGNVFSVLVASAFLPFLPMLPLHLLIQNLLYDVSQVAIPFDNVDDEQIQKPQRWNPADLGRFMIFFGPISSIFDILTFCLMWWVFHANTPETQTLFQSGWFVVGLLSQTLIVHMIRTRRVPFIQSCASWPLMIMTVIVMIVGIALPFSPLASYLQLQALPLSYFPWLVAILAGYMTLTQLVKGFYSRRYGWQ

binding [1]: binds
binding [2]: no binding
Binder: MKLRKILKSMFNNYCKTFKDVPPGNMFR (peptide, UniProt C1P605 1-28) [AzuC-SPA]
